Paper PMC8027631
Results are given in words; binding and its absence hold for the method and conditions named. Binding seen in cells or lysates may run through a third protein. Some entries that bind do so weakly or less than the wild type.

Chains of the proteins cited; added tags and fusions are not shown. Residues count along the entry.
UniProt Q9NZQ7, residues 19-290: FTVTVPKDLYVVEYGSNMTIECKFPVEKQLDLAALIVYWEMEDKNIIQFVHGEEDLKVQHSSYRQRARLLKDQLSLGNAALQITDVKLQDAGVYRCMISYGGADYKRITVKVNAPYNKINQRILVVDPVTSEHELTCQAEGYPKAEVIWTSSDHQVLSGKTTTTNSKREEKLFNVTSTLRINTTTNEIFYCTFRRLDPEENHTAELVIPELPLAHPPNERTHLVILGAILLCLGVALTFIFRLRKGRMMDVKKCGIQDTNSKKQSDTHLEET
UniProt Q14974: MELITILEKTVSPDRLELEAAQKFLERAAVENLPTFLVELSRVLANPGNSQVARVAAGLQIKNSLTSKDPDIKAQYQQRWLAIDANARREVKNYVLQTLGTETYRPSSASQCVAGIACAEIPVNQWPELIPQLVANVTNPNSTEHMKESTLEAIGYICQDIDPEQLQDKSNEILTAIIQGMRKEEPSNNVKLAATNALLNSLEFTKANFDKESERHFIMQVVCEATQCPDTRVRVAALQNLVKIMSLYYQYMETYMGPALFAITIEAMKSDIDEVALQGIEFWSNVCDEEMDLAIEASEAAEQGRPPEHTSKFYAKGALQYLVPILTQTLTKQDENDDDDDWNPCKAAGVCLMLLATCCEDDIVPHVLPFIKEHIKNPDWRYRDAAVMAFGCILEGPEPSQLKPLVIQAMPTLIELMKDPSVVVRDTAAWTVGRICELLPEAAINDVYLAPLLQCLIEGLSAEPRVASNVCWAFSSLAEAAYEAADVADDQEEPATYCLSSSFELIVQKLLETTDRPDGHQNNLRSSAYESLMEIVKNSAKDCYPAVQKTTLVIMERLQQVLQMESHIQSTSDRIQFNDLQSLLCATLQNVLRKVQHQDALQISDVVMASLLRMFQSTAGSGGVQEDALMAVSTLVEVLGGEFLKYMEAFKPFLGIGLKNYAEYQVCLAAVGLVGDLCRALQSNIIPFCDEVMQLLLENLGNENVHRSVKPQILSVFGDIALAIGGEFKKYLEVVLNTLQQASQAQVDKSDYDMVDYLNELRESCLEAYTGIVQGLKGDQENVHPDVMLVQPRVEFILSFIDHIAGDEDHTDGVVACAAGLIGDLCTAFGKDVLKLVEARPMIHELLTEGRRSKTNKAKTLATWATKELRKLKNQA

How the values were obtained:
[1] = biological target: programmed cell death ligand 1 (PD-L1), endogenous (human (endogenous in H1299 and HCC827)) (UniProt Q9NZQ7); assay: co-IP; endogenous proteins in H1299 and HCC827 lysates; anti-KPNB1 and anti-PD-L1 antibodies or normal IgG at 4 °C overnight, protein A/G beads, western blot
myc-tagged KPNB1 = myc-tagged KPNB1 (UniProt Q14974); assay: co-IP; myc-tagged KPNB1 and Flag-tagged PD-L1 co-expressed in HEK 293T cells (legend: HEK293T and Hela); KPNB1 immunoprecipitates blotted for PD-L1

Row | Substance | binding [1] | binding (myc-tagged KPNB1)
1 | Karyopherin β1 (KPNB1), endogenous (from UniProt Q14974 1-876) | binds | 
2 | Flag-tagged PD-L1 (programmed cell death ligand 1) (from UniProt Q9NZQ7 19-290) |  | binds
